Screening data, single-dose tests

Sequences of proteins named here, by UniProt entry; tags and fusion partners are left off. Residues count along the entry.
UniProt Q8IDJ8, 1-583: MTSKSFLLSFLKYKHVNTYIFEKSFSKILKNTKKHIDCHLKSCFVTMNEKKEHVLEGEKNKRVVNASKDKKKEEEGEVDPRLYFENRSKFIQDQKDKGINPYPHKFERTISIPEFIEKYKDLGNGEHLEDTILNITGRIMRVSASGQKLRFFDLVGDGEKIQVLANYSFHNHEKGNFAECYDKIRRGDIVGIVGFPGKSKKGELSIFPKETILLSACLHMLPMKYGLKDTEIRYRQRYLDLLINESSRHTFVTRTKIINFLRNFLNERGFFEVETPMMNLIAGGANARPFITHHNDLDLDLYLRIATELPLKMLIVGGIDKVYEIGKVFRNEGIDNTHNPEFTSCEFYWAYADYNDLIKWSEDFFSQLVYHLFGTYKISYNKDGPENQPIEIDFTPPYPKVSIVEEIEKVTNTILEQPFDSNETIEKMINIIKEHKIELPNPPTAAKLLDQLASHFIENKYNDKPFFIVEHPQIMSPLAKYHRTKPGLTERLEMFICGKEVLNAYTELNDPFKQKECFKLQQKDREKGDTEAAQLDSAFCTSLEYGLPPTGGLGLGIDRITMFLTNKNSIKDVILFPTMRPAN
UniProt I6X8D2, whole entry: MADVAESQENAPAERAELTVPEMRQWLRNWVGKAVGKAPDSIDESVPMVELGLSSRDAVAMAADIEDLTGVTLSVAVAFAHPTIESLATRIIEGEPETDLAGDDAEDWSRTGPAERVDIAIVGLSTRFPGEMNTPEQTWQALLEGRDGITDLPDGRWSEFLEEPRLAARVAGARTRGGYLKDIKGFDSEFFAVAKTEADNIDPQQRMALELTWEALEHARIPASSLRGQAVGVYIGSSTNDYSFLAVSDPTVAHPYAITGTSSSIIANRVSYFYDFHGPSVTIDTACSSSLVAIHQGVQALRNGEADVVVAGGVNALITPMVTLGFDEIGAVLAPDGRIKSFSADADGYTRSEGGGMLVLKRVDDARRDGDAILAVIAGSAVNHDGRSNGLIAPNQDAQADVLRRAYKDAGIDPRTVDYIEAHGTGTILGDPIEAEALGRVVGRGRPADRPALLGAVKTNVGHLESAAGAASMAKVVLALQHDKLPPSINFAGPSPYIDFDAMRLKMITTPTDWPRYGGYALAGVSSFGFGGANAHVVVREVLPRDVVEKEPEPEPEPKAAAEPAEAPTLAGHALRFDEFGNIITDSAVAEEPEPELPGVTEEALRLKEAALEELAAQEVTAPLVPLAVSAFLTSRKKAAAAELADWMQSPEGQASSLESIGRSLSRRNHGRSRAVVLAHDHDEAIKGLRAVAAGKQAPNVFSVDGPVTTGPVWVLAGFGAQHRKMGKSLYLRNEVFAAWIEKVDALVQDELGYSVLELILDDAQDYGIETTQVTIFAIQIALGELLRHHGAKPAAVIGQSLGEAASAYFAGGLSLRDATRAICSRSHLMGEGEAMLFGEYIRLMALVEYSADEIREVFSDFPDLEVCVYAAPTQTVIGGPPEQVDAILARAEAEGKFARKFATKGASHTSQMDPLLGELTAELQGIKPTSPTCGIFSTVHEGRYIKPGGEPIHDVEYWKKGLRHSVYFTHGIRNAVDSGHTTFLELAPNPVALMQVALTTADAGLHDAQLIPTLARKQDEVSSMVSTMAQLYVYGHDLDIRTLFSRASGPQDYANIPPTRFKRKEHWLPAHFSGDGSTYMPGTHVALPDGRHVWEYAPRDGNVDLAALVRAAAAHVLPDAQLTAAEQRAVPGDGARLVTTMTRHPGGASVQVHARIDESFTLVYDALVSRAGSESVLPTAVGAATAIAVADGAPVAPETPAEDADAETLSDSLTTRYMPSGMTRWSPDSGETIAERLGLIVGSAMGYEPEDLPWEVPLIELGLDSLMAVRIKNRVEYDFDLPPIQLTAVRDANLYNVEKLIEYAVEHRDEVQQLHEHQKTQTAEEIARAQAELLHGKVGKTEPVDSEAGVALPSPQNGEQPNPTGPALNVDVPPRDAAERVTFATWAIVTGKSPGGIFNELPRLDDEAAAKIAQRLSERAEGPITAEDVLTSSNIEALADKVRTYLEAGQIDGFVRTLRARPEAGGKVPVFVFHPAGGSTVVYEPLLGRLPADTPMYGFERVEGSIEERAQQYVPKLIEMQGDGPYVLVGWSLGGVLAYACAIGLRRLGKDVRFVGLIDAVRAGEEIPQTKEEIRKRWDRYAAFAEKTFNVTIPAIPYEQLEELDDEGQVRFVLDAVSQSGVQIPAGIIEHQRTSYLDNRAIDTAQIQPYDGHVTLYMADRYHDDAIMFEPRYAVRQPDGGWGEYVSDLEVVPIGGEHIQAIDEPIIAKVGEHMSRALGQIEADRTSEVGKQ
UniProt P9WPC5, whole entry: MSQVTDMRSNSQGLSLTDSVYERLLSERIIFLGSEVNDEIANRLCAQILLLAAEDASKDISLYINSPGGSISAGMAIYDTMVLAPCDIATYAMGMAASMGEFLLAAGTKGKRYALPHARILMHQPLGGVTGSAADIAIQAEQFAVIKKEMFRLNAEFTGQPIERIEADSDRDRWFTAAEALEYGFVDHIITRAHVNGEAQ
UniProt P9WPC3, whole entry partner: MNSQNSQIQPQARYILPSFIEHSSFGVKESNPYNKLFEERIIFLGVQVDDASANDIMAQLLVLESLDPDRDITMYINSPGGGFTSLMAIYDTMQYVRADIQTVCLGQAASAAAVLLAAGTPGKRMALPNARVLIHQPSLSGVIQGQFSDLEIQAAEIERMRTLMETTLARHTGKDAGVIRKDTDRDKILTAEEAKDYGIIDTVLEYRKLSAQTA

PfKRS1: 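Enzyme assay of the cytosolic lysyl-tRNA synthetase in 384-well plates, read by luminescence. Target: Lysine-tRNA ligase, Plasmodium falciparum 3D7 (UniProt Q8IDJ8). Compounds at 30 µM. Direction is inferred from only a few compounds that gave an IC50; most scored high, so higher reads as stronger inhibition. Size under these conditions: about 69,000 compounds, about 49 of them at 50% or above in at least one test.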
Pks13 thioesterase: 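Enzyme assay of the thioesterase domain of polyketide synthase 13; the read-out is not stated. Target: Polyketide synthase Pks13, Mycobacterium tuberculosis (UniProt I6X8D2). Compounds at 30 µM. The record gives no direction; the compounds picked for IC50 retests had high values, so higher reads as stronger inhibition. Size under these conditions: about 67,000 compounds, about 300 of them at 50% or above in at least one test.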
ClpP1P2: 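Protease assay of ClpP1P2, read by the AMC dye that it sets free. Target: ClpP1P2, Mycobacterium tuberculosis (UniProt P9WPC5 and UniProt P9WPC3). Tested at 50 µM. Higher reads as stronger inhibition, judged from the few compounds that gave an IC50. Most other retested compounds had strongly negative values. Of about 69,000 compounds tested this way, about 10 (0.015%) reached 50% or more in at least one test.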

The filed quantity is “Percent Effect” (%). The record does not define 0% and 100%; most values in the screen are far below 50% and negative numbers occur (in some assays of this library far below -100). This is an unselected part of the compounds tested. A dash means the value is not listed here; it may have been measured.

Compound | PfKRS1 | Pks13 thioesterase | ClpP1P2
CCOC[C@@H]1CC[C@H]2[C@H](CCN2S(=O)(=O)Cc2ccccc2)O1 | -2.692% | -3.751% | 14.85%
CC(=O)N1CC(C)CN(C(=O)c2cscn2)c2ccccc21 (centres undefined) | 4.341% | -7.746% | 7.209%
Cn1ncc2c(N3CCC(CC(=O)N4CCCC4)CC3)ncnc21 | 6.458% | -8.777% | -18.87%
O=C(O)c1cc(-c2ccn(CC3CC3)n2)n2ccccc12 | 2.526% | -14.71% | -37.14%
N#Cc1ccc(CNC(=O)NC2CCN(c3ncccn3)CC2)cc1 | 4.816% | -9.319% | -4.111%
Cc1cc2c(cc1C(=O)N1CC[C@H](CO)[C@@H](O)C1)OCCO2 | 0.6442% | -7.649% | -5.864%
CCCOCCN1CCc2[nH]c(-c3ccccc3)nc2C1 | -4.789% | - | -16.27%
c1cnn(CC2CN(Cc3csc(C4CCCCC4)n3)CCO2)c1 (centres undefined) | 0.9117% | -3.524% | -34.96%
CCCc1cc(C(=O)N2CC(c3ccncc3)C2)ccn1 | 5.222% | -26.55% | -18.21%
O=C(CSCCN1CCOCC1)N1CCCCCC1 | -3.047% | -5.48% | 0.3361%
O=C(c1n[nH]c2ccccc12)N1CCCC1c1noc(C2CC2)n1 (centres undefined) | 5.155% | -51.15% | -13.36%
COCC1COCCC12CCN(S(=O)(=O)c1cccnc1)CC2 (centres undefined) | 3.758% | -4.243% | -3.283%
CNC(=O)N1CCC2(CC1)C(=O)N(C)c1c(F)cccc12 | 2.005% | -7.757% | 1.264%
O=C(NCCNc1ncccn1)NCc1cccc(OC(F)F)c1 | 3.509% | -34.89% | 3.997%
Cc1nc(CN2CCC3(CCN(c4cnn(C)c4)C3=O)C2)cs1 (centres undefined) | -5.189% | -8.242% | -15.34%
O=c1[nH]c2c(c(=O)n1C1CCCCC1)CCC2Nc1ccc(Cl)cc1 (centres undefined) | 12.75% | 23.73% | -1.921%
c1ccc(OCCCNCc2cccs2)nc1 | 10.12% | -17.52% | -10.6%
CCN(CC)C1CCN(C(=O)c2cc3cc(C)cc(C)c3nc2C)CC1 | 0.4413% | 5.799% | -29.61%
COCC1c2nnn(CC3CC3)c2CCN1C(=O)c1ccnnc1 (centres undefined) | 1.234% | -7.264% | -9.324%
COc1cccc(OCC(=O)NCc2ccc3[nH]c(=O)[nH]c3c2)c1 | 4.499% | -0.8457% | -0.4176%
CCN(CCCNc1ncnc2cc(F)c(F)cc12)S(C)(=O)=O | 1.816% | -34.58% | 2.008%
Cc1n[nH]c(NC(=O)c2ccc(COCC(F)(F)F)cc2)c1C | -0.7172% | 11.46% | -3.635%
Cc1cc(-c2cnc(NC3CC3)nc2-c2ccoc2C)on1 | 2.823% | - | -4.524%
CCc1nc(C)cc(N2CCN(C(=O)[C@@H]3C[C@@H]4C=C[C@H]3C4)CC2)n1 | 0.4976% | 10.77% | -25.49%
O=C(NCCN1CCOCC1)c1cnc(Cc2ccc(F)cc2)s1 | 6.496% | 3.085% | -0.8451%
CCc1nc(CNc2nc3c(s2)c(C)nn3C)cs1 | 0.07379% | -19.82% | -10.71%
COc1cc(F)c(CN2CC[C@@](O)(C3CC3)[C@H](C)C2)cc1OC | 5.284% | 2.095% | -16.7%
CC1(c2nccs2)CCN(C(=O)CCN2CCOCC2)CC1 | 1.278% | -22.56% | -16.58%
O=C(NCCn1ccc(-c2ccccn2)n1)C1CCC1 | -2.323% | -21.99% | -16.68%
Cn1cccc1C(=O)N1CCC2(CCCN(CC3CCC3)C2=O)C1 (centres undefined) | 0.05987% | -2.956% | -11.07%
CC(C)c1nc(CN(C)Cc2cnc(N3CCOCC3)nc2)no1 | 1.949% | 2.257% | -9.526%
Cc1ccsc1C(=O)NCc1ccnc(OCC(F)(F)F)c1 | -0.2301% | -0.08253% | -35.48%
COc1ccc(C)cc1CN(C)Cc1nc2c(cnn2C)c(=O)[nH]1 | 5.601% | -3.59% | -1.623%
CC(C)CN1CCC(N2CCC(C(=O)N(C)C)CC2)CC1 | 5.193% | -0.7931% | -7.863%
CCCc1cc(C(=O)N[C@H](C)[C@@H](O)c2ccc(O)cc2)n(C)n1 | 3.842% | -14.46% | -5.173%
Cc1nc(C)n(CC2CCCN(CCC(=O)NC3CCCCC3)C2)n1 (centres undefined) | 2.763% | -19% | -53.12%
Cc1nc(C2CCNCC2)cc(N2CCOc3ccccc3C2)n1 | 3.238% | -25.8% | -7.791%
O=C1N(CC2CC2)C2(CCSCC2)NC12CCCC2 | 0.7192% | -14.34% | -0.556%
Cc1ncccc1C(=O)NC1(c2cccc(F)c2)CCOCC1 | 2.291% | -4.457% | -4.382%
COC(=O)c1sccc1S(=O)(=O)N1CCc2c(ncnc2N(C)C)C1 | -0.8904% | -7.1% | -6.036%
c1cnc(N2C[C@H](OCC3CCOCC3)[C@H]3COC[C@H]32)nc1 | 3.656% | 4.811% | -6.957%
COc1ccc(-c2nc(C#N)c(N(C)C)o2)cc1OC | 0.8526% | 5.574% | -12.98%
CN1CCN(CCCNC(=O)c2nc3ccccc3c(=O)[nH]2)CC1 | 0.6546% | -8.406% | -13.45%
COc1cc(C)c(-c2ccc(F)c3c2OC(CN)C3)cc1C (centres undefined) | 4.071% | -9.671% | -8.336%
CCOc1ccc(CN2CCNC(C(=O)NC3CC3)C2)cc1CO (centres undefined) | 4.4% | -1.632% | -21.74%
Cc1nccc(CNc2cc(N3CCCC3CO)ncn2)n1 (centres undefined) | 0.09379% | -11.6% | -45.54%
COCc1ncn2c1CN(C(=O)c1cccc3cccnc13)CC2 | -2.57% | -38.88% | 7.467%
CCC[C@H]1CN(S(C)(=O)=O)C[C@@H]1NC(=O)Cc1ccc(OC)cc1 | 4.545% | -10.75% | -16.28%
CCn1nc(C)c2nc(C)nc(N(C)Cc3ccco3)c21 | 7.506% | - | -10.17%
Cc1ccc(C(=O)N2CCOC(c3ncc(CN(C)C)[nH]3)C2)cc1F (centres undefined) | -1.927% | -0.8574% | -8.538%
CC(=O)N1CCCN(C(=O)NCc2ccccn2)CC1 | 2.753% | -7.639% | -4.541%
COC1(CNC(=O)c2ccc(Cl)c(Cl)c2)CCSC1 (centres undefined) | -3.017% | 3.653% | -4.857%
CS(=O)(=O)N1CCC(CNc2cc(Cl)ccc2C#N)CC1 | 2.84% | -25.46% | -10.68%
CC(C)(C)n1cc(C2=CCN(CCc3ccccc3)CC2)cn1 | 4.374% | -9.936% | 2.741%
Cc1nc(O)c2nnn(C[C@H]3CCCN3C(=O)c3cccs3)c2n1 | 1.443% | -1.405% | -0.03189%
CCC(NC(=O)c1cccc2[nH]ccc12)C(=O)N1CCOCC1 (centres undefined) | 5.042% | -20.63% | -1.94%
Cc1cc(F)ccc1N1CCCC(NS(=O)(=O)CCCF)C1=O (centres undefined) | 3.128% | 16.87% | -3.03%
CCN(CC)S(=O)(=O)c1ccc(C(=O)NC(C)(C#N)C2CC2)cc1 (centres undefined) | 1.939% | -17.96% | 7.699%
CCN(CCc1nc2cc(C)ccc2[nH]1)C(=O)[C@@H](N)Cc1c[nH]cn1 | 0.7313% | -19.04% | -6.342%
COCC(=O)N1C[C@@H](OCc2ccncc2)[C@@H]2OCCC[C@@H]21 | 0.7628% | 1.048% | 16.13%
COCCN1CCN(C(=O)C2CC=CC2)Cc2cccnc21 | 1.139% | -30.47% | 5.139%
CC(=O)NCCNC(=O)CN1CCCCC1Cn1cncn1 (centres undefined) | 1.776% | -3.721% | -10.9%

The last 6 entries again:

* Cc1cc(F)ccc1N1CCCC(NS(=O)(=O)CCCF)C1=O (centres undefined) : PfKRS1: 3.128%; Pks13 thioesterase: 16.87%; ClpP1P2: -3.03%
* CCN(CC)S(=O)(=O)c1ccc(C(=O)NC(C)(C#N)C2CC2)cc1 (centres undefined) : PfKRS1: 1.939%; Pks13 thioesterase: -17.96%; ClpP1P2: 7.699%
* CCN(CCc1nc2cc(C)ccc2[nH]1)C(=O)[C@@H](N)Cc1c[nH]cn1 : PfKRS1: 0.7313%; Pks13 thioesterase: -19.04%; ClpP1P2: -6.342%
* COCC(=O)N1C[C@@H](OCc2ccncc2)[C@@H]2OCCC[C@@H]21 : PfKRS1: 0.7628%; Pks13 thioesterase: 1.048%; ClpP1P2: 16.13%
* COCCN1CCN(C(=O)C2CC=CC2)Cc2cccnc21 : PfKRS1: 1.139%; Pks13 thioesterase: -30.47%; ClpP1P2: 5.139%
* CC(=O)NCCNC(=O)CN1CCCCC1Cn1cncn1 (centres undefined) : PfKRS1: 1.776%; Pks13 thioesterase: -3.721%; ClpP1P2: -10.9%

Source: ChEMBL document CHEMBL3988442, “University of Dundee, Small-Polar-MMV Screening Library” (2021).